At least one compound was matched to its structure with a doubt left.
What was measured:
[1] = Global relative antioxidant activity: total oxidative stress protective capacity score (sum of five tests); details: sum of five equally weighted tests, maximum 100
Description: Each oxidant was scored in each test, the results were then totaled for each antioxidant for each of the tests on an equal weighted basis. The total score of a particular antioxidant is reflective of the overall oxidative stress protective capacity of the antioxidant.
The five tests, which were equally weighted at 20 points each, allowed for the maximum highest possible score of 100 points. Using this scale, the higher score indicates higher oxidative stress protective capacity of the antioxidant. Equal weight was given to an antioxidant's performance in each study because each study tested the antioxidant's ability to protect against a unique different set of oxidative stress parameters.
A total oxidative stress protective capacity score for each antioxidant was determined by adding the results of the five tests for each antioxidant. Each of the five tests was assigned equal weight. That is, each antioxidant could receive a maximum of 20 points in each test so that each test contributed equally to the total score for each antioxidant.

[2] = Radical scavenging capacity measured by photochemilluminescence (Photochem system); assay type: biochemical
Description: Test 2: Radical Scavenging Capacity Measured by Photochemilluminescence
This test assessed the general antioxidative capacity of substances in their ability to scavenge free radicals via the measurement of radicals generated (or lack thereof) through their reaction with luminol and subsequent light emission.
The individual antioxidant capacity of the putative antioxidant substances was estimated by the Photochem® system (Analytik Jena AG, Jena, Germany, and Analytik Jena USA, Inc., Texas). The system combines the generation of radicals through photochemical excitation with highly sensitive luminometric detection via the radical reaction with luminol to produce measurable light emission. Samples are diluted with pre-made buffers (standardized kits) and applied to the device. The relative antioxidative capacity is determined by comparison to a standardized blank (without antioxidants) and a standard provided with the kit. The ACL-kit (Integral Antioxidative Capacity of lipid-soluble substances) and the ACW-kit ((Integral Antioxidative Capacity of water-soluble substances) were used.
Antioxidant concentrations effective to eliminate radical formulation were established for each antioxidant.

[3] = Microsome pro-oxidative system (NADPH/ADP/Fe3+) measuring secondary oxidation by-products (MDA equivalents, TBARS); assay type: biochemical, male Wistar rats; details: 100 μmol antioxidant; normalized to best performer = 20 points
[4] = LDL pro-oxidative system (CuSO4) measuring primary oxidation by-products (lipid hydroperoxides); assay type: biochemical; details: 100 μmol antioxidant; normalized to best performer = 20 points
Description: Test 3: LDL Pro-Oxidative Systems Measuring Primary & By-Products
This test assessed the ability of the antioxidant to protect LDL stressed with Copper Sulfate (Cu—SO4) oxidative system. The CuSO4-LDL system was used to evaluate the protection of lipid bulks over time measuring the primary by-products of lipid peroxidation—the highly reactive and cytotoxic lipid hydroperoxides.
After isolation, LDLs were extensively dialyzed against a degassed and nitrogen-saturated Tris-Hydrochloric (HCl) buffer (5 mmol/L, pH7.4) containing 1 mmol/L EDTA. Before oxidation by CuSO4, EDTA was removed from LDL by dialysis against a Tris-HCl buffer (5 mmol/L, pH7.4) without added EDTA.
Lipid hydroperoxides were determined with the Cayman Lipid Peroxidation (LPO) Assay Kit (Cayman Chemical, Ann Arbor, Mich.) which measures the hydroperoxides directly utilizing the redox reactions with ferrous ions to produce ferric ions which can be detected using thiocyanate ion as the chromogen.

O=C1O[C@H]([C@@H](O)CO)C(O)=C1O [Ascorbic acid, 1-ascorbic acid]
Total Points (Total Score) [1]: 52 points | Photochemilluminescence score ([2]; 10 nmol/L=20, 100 nmol/L=15, 1000 nmol/L=10, >1000 nmol/L=5): 20 points | Effective Concentration (to eliminate radical formation) ([2]; lowest effective concentration, base 10 serial dilution): 10 nmol/L | Secondary Oxidative Products score [3]: 12 points | Primary Oxidative Products score [4]: 3 points

Reference: patent US8802054B2, “Method for characterizing the oxidative stress protective capacity of an antioxidative substance” (PCR Technology Holdings, LC, priority 2005, dated 2014)
